# Data published in paper PMC10229537.
# Amino acid sequences for entries named in this document (tags omitted).
# UniProt Q5D869: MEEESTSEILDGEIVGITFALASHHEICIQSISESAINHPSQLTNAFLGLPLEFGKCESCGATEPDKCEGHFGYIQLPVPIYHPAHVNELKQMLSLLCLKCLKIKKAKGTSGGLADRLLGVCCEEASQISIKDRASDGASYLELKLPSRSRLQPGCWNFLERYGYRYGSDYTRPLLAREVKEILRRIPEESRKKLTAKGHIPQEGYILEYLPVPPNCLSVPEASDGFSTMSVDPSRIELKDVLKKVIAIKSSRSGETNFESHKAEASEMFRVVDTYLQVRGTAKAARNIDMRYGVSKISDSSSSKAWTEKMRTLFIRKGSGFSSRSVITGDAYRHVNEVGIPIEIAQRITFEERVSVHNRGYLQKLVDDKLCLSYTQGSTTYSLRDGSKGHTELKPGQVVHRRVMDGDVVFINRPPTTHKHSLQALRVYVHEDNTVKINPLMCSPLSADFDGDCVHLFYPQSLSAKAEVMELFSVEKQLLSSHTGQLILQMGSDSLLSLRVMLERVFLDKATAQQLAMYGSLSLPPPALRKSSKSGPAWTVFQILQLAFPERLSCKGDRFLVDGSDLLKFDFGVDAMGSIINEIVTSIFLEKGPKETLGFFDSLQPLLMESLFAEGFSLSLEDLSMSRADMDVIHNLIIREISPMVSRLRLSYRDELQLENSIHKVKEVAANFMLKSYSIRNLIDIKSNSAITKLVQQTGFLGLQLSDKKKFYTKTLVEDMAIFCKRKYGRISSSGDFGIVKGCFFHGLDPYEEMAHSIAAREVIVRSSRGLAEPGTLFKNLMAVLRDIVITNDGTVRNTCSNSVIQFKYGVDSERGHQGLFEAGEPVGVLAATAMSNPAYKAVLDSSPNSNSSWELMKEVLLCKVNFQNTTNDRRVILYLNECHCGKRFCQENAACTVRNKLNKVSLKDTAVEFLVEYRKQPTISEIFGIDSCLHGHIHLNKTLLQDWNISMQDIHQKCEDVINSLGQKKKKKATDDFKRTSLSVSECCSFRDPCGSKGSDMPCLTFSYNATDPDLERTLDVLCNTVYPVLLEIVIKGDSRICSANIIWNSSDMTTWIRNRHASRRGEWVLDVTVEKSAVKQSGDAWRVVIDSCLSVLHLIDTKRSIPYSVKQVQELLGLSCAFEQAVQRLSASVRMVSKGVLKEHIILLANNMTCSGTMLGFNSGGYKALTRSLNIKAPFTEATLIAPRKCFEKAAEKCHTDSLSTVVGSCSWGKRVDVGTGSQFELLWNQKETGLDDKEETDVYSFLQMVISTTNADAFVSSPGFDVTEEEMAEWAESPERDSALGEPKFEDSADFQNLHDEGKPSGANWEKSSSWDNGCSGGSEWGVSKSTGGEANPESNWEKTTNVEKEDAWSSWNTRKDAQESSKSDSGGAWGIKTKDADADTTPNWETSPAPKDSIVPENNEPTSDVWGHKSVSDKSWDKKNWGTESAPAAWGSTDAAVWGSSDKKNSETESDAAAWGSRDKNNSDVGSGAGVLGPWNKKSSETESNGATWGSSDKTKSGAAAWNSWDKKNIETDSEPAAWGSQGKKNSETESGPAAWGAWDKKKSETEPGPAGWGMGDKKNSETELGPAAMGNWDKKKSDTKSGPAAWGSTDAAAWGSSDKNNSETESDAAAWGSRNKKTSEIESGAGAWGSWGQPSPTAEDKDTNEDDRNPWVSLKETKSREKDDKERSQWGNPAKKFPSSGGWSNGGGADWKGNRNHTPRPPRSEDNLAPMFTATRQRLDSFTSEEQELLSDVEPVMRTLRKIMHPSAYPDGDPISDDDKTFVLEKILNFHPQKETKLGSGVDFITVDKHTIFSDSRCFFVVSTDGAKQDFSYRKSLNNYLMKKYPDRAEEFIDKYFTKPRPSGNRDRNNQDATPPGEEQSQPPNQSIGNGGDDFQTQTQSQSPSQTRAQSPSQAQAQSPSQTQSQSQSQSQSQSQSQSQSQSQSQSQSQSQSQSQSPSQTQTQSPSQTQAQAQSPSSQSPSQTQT
# These are yes or no findings as the source states them, for the method shown. In cells and extracts the contact can be indirect. These calls come from enrichment with a bait or labelling near it, and not all partners need be listed.
# B1: NRPE5c (protein, UniProt Q9M1H8 1-233)
# chain: MEETMAEEGCCENVESTFDDGTNCISKTEDTGGIESKRFYLARTTAFEMLRDRGYEVNEAELSLTLSEFRSVFGEKPELERLRICVPLRSDPKKKILVVFMGTEPITVKSVRALHIQISNNVGLHAMILVLQSKMNHFAQKALTTFPFTVETFPIEDLLVNITKHIQQPKIEILNKEEKEQLLRKHALEDKQLPYLQEKDSFVRYYGLKKKQVVKITYSKEPVGDFVTYRCII
# B2: NRPE7 (protein, UniProt A6QRA1 1-178)
# chain: MFLKVQLPWNVMIPAENMDAKGLMLKRAILVELLEAFASKKATKELGYYVAVTTLDKIGEGKIREHTGEVLFPVMFSGMTFKIFKGEIIHGVVHKVLKHGVFMRCGPIENVYLSYTKMPDYKYIPGENPIFMNEKTSRIQVETTVRVVVIGIKWMEVEREFQALASLEGDYLGPLSEE
# B3: NRPE5a (protein, UniProt Q9M1J2 1-222)
# chain: MEVKGKETASVLCLSKYVDLSSEESHRYYLARRNGLQMLRDRGYEVSDEDINLSLHDFRTVYGERPDVDRLRISALHRSDSTKKVKIVFFGTSMVKVNAIRSVVADILSQETITGLILVLQNHVTNQALKAIELFSFKVEIFQITDLLVNITKHSLKPQHQVLNDEEKTTLLKKFSIEEKQLPRISKKDAIVRYYGLEKGQVVKVNYRGELTESHVAFRCVW
# Target: NRPE1, the largest subunit of Pol V, 3xFLAG-10xHis-tagged (Arabidopsis thaliana) (UniProt Q5D869)
# Assay: affinity purification with mass spectrometry; 3xFLAG-10xHis-NRPE1 from T87 cell lysate on anti-FLAG resin, eluted with FLAG peptide, Capto Q, Superose 6; LC-MS/MS of the purified complex, performed once
row,binding,Binder
1,binds,B1
2,binds,B2
3,binds,B3
